Results from paper PMC11723354.
These are yes or no findings as the source states them, for the method shown. Where a sequence is shown, tags or fusion partners need not be part of it.

Biological target: T1, PRR1, yeast two-hybrid fusion (UniProt Q689G9)
T1 sequence: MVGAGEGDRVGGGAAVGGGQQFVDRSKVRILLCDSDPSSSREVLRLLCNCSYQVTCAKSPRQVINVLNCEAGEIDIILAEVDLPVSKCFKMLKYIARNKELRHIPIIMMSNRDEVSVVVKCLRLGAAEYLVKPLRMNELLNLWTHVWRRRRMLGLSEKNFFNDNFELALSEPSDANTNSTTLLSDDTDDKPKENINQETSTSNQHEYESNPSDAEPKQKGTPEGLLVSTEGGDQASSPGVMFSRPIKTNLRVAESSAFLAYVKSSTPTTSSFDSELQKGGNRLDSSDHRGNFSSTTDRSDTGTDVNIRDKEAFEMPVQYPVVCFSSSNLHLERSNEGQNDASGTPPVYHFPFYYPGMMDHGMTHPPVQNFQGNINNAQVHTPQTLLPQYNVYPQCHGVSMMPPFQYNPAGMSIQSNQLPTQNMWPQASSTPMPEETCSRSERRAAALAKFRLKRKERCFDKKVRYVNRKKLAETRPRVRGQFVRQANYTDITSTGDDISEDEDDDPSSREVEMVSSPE
Test: two-hybrid; yeast two-hybrid, AD and BD fusions; yeast grew at 30 °C for 3 days; empty vectors as negative controls

binding: no binding
Substance: Oryza sativa BBX2 (OsBBX2), yeast two-hybrid fusion (rice (Oryza sativa))
